# According to patent US4650661A (priority 1982, dated 1987):
# Non-standard residues stand in square brackets, D forms with d. Sta = CC(C)C[C@H](N)[C@@H](O)CC(=O)O
# Tests used:
# [1] = general procedure: Boc solid-phase peptide synthesis; Boc-Lys(Cl2 Z)--O--Resin; conditions: whole synthesis, scale 0.24 mmole
# [2] = general procedure: Boc solid-phase peptide synthesis; Boc-His(π--Bom)--O--Resin; conditions: whole synthesis, scale 0.2 mmol
Substance,crude mass [1],crude mass [2]
Sta-Lys peptide,171.6 mgs,–
H-HPFH[Sta]VIH-OH,–,126 mgs
